Laboratory results: PubChem BioAssay AID602346 (Broad Institute, 2012)
About 1,200 (0.35%) of roughly 340,000 compounds were called active. Inconclusive results, whose numbers are uncertain, are shown with a selection of clear calls. Rule as the data show it: active = inhibition above about 50% (passing the limit was not always enough); inconclusive = no clear call, values can overlap the other calls; inactive = below about 31%.

Assay: blockers of Vif multimerization in cells – imaging, HEK293T, single point, primary screen (AID 602346)
Details: Vif self-association by quenched fluorescence, 24 h, at 7.49 µM, stronger effect = higher value

SMILES	inhibition
CC(C)(C)c1nn(-c2ccccc2)c2[nH]c(=O)c(C=O)cc12	inactive: -18.9%
Cc1ccc(S(=O)(=O)N(C)C)cc1NC(=O)COC(=O)c1cccs1	inconclusive: 32%
O=C(O)c1ccc(Cn2cc(/C=C\[N+](=O)[O-])c3ccccc32)o1	inconclusive: 47.3%
COc1ccc(-c2[nH]ncc2CN2CCCC(C(=O)c3cccc(OC)c3)C2)cc1 (stereo not given)	inactive: 20.2%
Cn1nnnc1-c1cc(Br)ccc1NC(=O)c1ccccc1	inconclusive: 26.4%
Cc1cc(=O)n2nc(N3CCCC(C(=O)N4CCN(c5ccccc5)CC4)C3)sc2n1 (stereo not given)	inconclusive: 35.4%
COc1ccc(C(=O)Nc2ccccc2)cc1S(=O)(=O)NCc1ccco1	inconclusive: 36.1%
CN(C)c1ccc(/C=C2\SC(N3CCCCC3)=NC2=O)cc1	active: 196%
Cc1cccc(Nc2ccc([N+](=O)[O-])cc2C(=O)O)c1	inactive: -0.587%
COc1cc(CN2CCc3ccccc3C2)cc([N+](=O)[O-])c1O	inactive: -6.17%
COc1ccc(OC)c(-c2nn(-c3ccccc3)cc2C(=O)NCC(c2ccco2)N2CCCC2)c1 (stereo not given)	active: 54.5%
COCC(C)NCc1cccc(OC)c1OC (stereo not given)	inactive: 1.26%
CC(=O)c1ccc(OCC(O)CN2CC(C)OC(C)C2)cc1 (stereo not given)	inconclusive: 29.1%
O=C(N/N=C\c1ccccn1)c1ccccc1O	inconclusive: 39.5%
COc1cc(OC)c(C(=O)Nc2cccc3ccccc23)cc1OC	inactive: -1.92%
COc1ccc(C(C)=O)cc1CSc1nc2ccccc2c(=O)n1-c1ccccc1C	inactive: 5.45%
Nc1ccc(C(=O)N/N=C\c2cc(N=Nc3cccc4ccccc34)ccc2O)cc1	inconclusive: 40.7%
COc1ccc(C2=NN(C(C)=O)C(c3cccs3)C2)cc1OC (stereo not given)	inactive: 16.6%
O=C(Nc1nnc([C@H]2C[C@H](O)[C@@H](CO)O2)s1)C(c1ccccc1)c1ccccc1	inconclusive: 21.5%
Clc1ccc(C2=Nn3c(nnc3-c3n[nH]c4c3CCC4)SC2)cc1Cl	inconclusive: 47.5%
COc1ccc2[nH]cc(C=O)c2c1	inactive: 6.94%
Nc1nc(-c2ccc3ccccc3c2)cs1	inconclusive: 45.9%
CC(C)CCNS(=O)(=O)c1ccc(-c2ccc(S(=O)(=O)NCCC(C)C)cc2)cc1	inconclusive: 21.9%

Sorted by molecular weight (rising): part of the list above
SMILES	inhibition
COc1cc(CN2CCc3ccccc3C2)cc([N+](=O)[O-])c1O	inactive: -6.17%
Clc1ccc(C2=Nn3c(nnc3-c3n[nH]c4c3CCC4)SC2)cc1Cl	inconclusive: 47.5%
COc1ccc(C(C)=O)cc1CSc1nc2ccccc2c(=O)n1-c1ccccc1C	inactive: 5.45%

(further entries)

SMILES	inhibition
O=C(Cc1sc(Nc2ccccc2)nc1-c1ccccc1)NCc1ccccc1	active: 98%
CCC(=O)N1CCC1(C)C(=O)Nc1ccc(OC)c(OC)c1 (stereo not given)	inconclusive: 35.3%
Cc1ccc[n+](-c2nc3ccccc3nc2[N-]S(=O)(=O)c2ccccc2)c1	inactive: 5.78%
COC(=O)C1=C(C)N(CCCC(=O)O)C(=O)NC1c1cccs1 (stereo not given)	inconclusive: 40%
COc1ccc2cc(C(=O)NCc3ccccc3)[nH]c2c1	inactive: 0.982%
O=c1/c(=C\c2ccc(F)cc2)sc2n1CCCN=2	inconclusive: 3.24%
O=C(c1ccc(Cl)cc1)C1CCN(Cc2ccccc2)CC1	inactive: 4.62%
COc1cccc(NC(=O)C2C3C=CC4(O3)C2C(=O)N(CCCN2CCCC(C)C2)C4C(=O)NC2CCCCC2C)c1 (stereo not given)	inconclusive: 36.4%
CCOC(=O)c1ccc(NC(=O)Nc2ccon2)cc1	inconclusive: 48.8%
COc1cc(/C=C2\Oc3cc(O)ccc3C2=O)ccc1O	inconclusive: 33.7%
COc1ccc(OCCCC(=O)Nc2ncn[nH]2)cc1	active: 51%
CCN1CCSc2ccc(C(=O)NCc3ccccc3F)cc21	inactive: 4.75%
CCOC(=O)COc1nc(OC)nc(N2CCOCC2)n1	inactive: 1.87%
O=C(CN1CCN(S(=O)(=O)c2ccc(Cl)c(Cl)c2)CC1)N1CCCCC1	inactive: -0.957%
COc1cc(-c2noc(C)c2C#Cc2ccsc2)cc(OC)c1OC	inconclusive: 43.5%
COc1ccc(NC(=O)C(CCS(C)(=O)=O)N2C(=O)c3ccccc3C2=O)cc1 (stereo not given)	inconclusive: 38.7%
COc1ccc(NC(=O)Cn2nnc(C(=O)NCCc3ccccc3)c2N)cc1	inactive: -7.28%
Cc1ccccc1Nc1nc(N)nc(CCl)n1	active: 104%
Cc1c(F)cccc1NS(=O)(=O)c1ccc(N2CCCC2=O)cc1	inconclusive: 26.9%
O=C(CN1CCC(NC(=O)c2ccco2)CC1)Nc1cccc2ccccc12	inconclusive: 38.8%
CN=C1S/C(=C\c2ccc(OCC(=O)OC)c(OC)c2)C(=O)N1C	inconclusive: 41.9%
COc1ccc(C2=CC3=C(Br)C(=O)C(C)(OC(=O)c4ccco4)C(=O)C3=CO2)cc1 (stereo not given)	inactive: -5.31%
O=C(Cn1nc(-c2ccccc2)ccc1=O)Nc1ccc(NC(=O)c2ccccn2)cc1	inactive: -1.88%

In the list so far, 23 have nitrogen in an aromatic ring:
SMILES	inhibition
CC(C)(C)c1nn(-c2ccccc2)c2[nH]c(=O)c(C=O)cc12	inactive: -18.9%
O=C(O)c1ccc(Cn2cc(/C=C\[N+](=O)[O-])c3ccccc32)o1	inconclusive: 47.3%
COc1ccc(-c2[nH]ncc2CN2CCCC(C(=O)c3cccc(OC)c3)C2)cc1 (stereo not given)	inactive: 20.2%
Cn1nnnc1-c1cc(Br)ccc1NC(=O)c1ccccc1	inconclusive: 26.4%
Cc1cc(=O)n2nc(N3CCCC(C(=O)N4CCN(c5ccccc5)CC4)C3)sc2n1 (stereo not given)	inconclusive: 35.4%
COc1ccc(OC)c(-c2nn(-c3ccccc3)cc2C(=O)NCC(c2ccco2)N2CCCC2)c1 (stereo not given)	active: 54.5%
O=C(N/N=C\c1ccccn1)c1ccccc1O	inconclusive: 39.5%
COc1ccc(C(C)=O)cc1CSc1nc2ccccc2c(=O)n1-c1ccccc1C	inactive: 5.45%
O=C(Nc1nnc([C@H]2C[C@H](O)[C@@H](CO)O2)s1)C(c1ccccc1)c1ccccc1	inconclusive: 21.5%
Clc1ccc(C2=Nn3c(nnc3-c3n[nH]c4c3CCC4)SC2)cc1Cl	inconclusive: 47.5%
COc1ccc2[nH]cc(C=O)c2c1	inactive: 6.94%
Nc1nc(-c2ccc3ccccc3c2)cs1	inconclusive: 45.9%
O=C(Cc1sc(Nc2ccccc2)nc1-c1ccccc1)NCc1ccccc1	active: 98%
Cc1ccc[n+](-c2nc3ccccc3nc2[N-]S(=O)(=O)c2ccccc2)c1	inactive: 5.78%
COc1ccc2cc(C(=O)NCc3ccccc3)[nH]c2c1	inactive: 0.982%
O=c1/c(=C\c2ccc(F)cc2)sc2n1CCCN=2	inconclusive: 3.24%
CCOC(=O)c1ccc(NC(=O)Nc2ccon2)cc1	inconclusive: 48.8%
COc1ccc(OCCCC(=O)Nc2ncn[nH]2)cc1	active: 51%
CCOC(=O)COc1nc(OC)nc(N2CCOCC2)n1	inactive: 1.87%
COc1cc(-c2noc(C)c2C#Cc2ccsc2)cc(OC)c1OC	inconclusive: 43.5%
COc1ccc(NC(=O)Cn2nnc(C(=O)NCCc3ccccc3)c2N)cc1	inactive: -7.28%
Cc1ccccc1Nc1nc(N)nc(CCl)n1	active: 104%
O=C(Cn1nc(-c2ccccc2)ccc1=O)Nc1ccc(NC(=O)c2ccccn2)cc1	inactive: -1.88%

The list continues:

SMILES	inhibition
O=C1C(=O)c2ccccc2C(O)=C1C1CCC(c2ccc(Cl)cc2)CC1 (stereo not given)	inconclusive: 29.2%
CN(c1ccc(OCC(=O)Nc2ccc3[nH]c(=O)[nH]c3c2)cc1)S(=O)(=O)c1ccc(Cl)cc1	inconclusive: 26.9%
Cc1ccc(-n2nnnc2SCC(=O)Nc2cc(C)on2)c(C)c1	inconclusive: 48.9%
O=C(/C=C/c1cccc(Cl)c1)c1ccc([N+](=O)[O-])o1	inactive: -2.97%
CCCCn1c(SCC(=O)Nc2nnc(C(C)C)s2)nc2c1c(=O)n(C)c(=O)n2C	active: 52%
N#CC1CN(C(c2ccccc2)c2ccccc2)C1	inactive: -1.83%
COc1ccc(N2CCN(C(=O)COC(=O)Cc3ccc(F)cc3)CC2)cc1	inconclusive: 39.7%
CCOc1ccc(-c2cc(C(=O)NCCCn3ccnc3)c3cc(Br)ccc3n2)cc1	active: 61.3%
CCc1ccc(/C(C)=N\Nc2ccc([N+](=O)[O-])cc2)cc1	active: 60.3%
O=C1CC[C@H](O)CCN1[C@H](CSc1ccccc1)Cc1ccccc1	inconclusive: 44.4%
COc1ccc(C(=O)Cn2nnc(-c3ccccc3F)n2)cc1	inconclusive: 25.1%
O=C(COc1ccccc1)N=C1SC2CS(=O)(=O)CC2N1c1ccccc1 (stereo not given)	inconclusive: 30.9%
Cc1ccc(NC(=O)c2sc3ncn(CC(=O)N4CCN(c5ccccn5)CC4)c(=O)c3c2C)cc1F	inconclusive: 20.2%
CCn1c(SCC(=O)NCc2ccc3c(c2)OCO3)nnc1-c1ccncc1	inconclusive: 34.9%
COc1cc(-c2nnc(COc3ccc(Cl)cc3C)o2)cc(OC)c1OC	inconclusive: 25.7%
CC1(C)Cc2c(c(N3CCOCC3)nc3sc4c(=O)[nH]cnc4c23)CS1	inconclusive: 44.3%
CCOC(=O)c1[nH]c(C)c(C(=O)Nc2ccc3c(c2)CCC3)c1C	inconclusive: 30.9%
Cc1cccn2c(=O)c(/C=C(\C#N)C(=O)NC3CCS(=O)(=O)C3)c(N3CCC(C)CC3)nc12 (stereo not given)	inconclusive: 31%
O=C(/C=C/c1ccc2c(c1)S(=O)(=O)N(Cc1ccccc1)[C@H]2CC(=O)N1CCOCC1)N1CCOCC1	inconclusive: 25%
COc1ccc(-c2nc(-c3ccc(C(=O)O)cc3)no2)cc1	inconclusive: 26.8%
COc1cc(C2c3cc4c(cc3OC(NNC(N)=S)C2C)OCO4)cc(OC)c1OC (stereo not given)	active: 56%
O=C(O)c1cccc(S(=O)(=O)Nc2ccccc2Cl)c1	inconclusive: 7.83%
CCOC(=O)N1CCN(c2ncnc3c2[nH]c2ccc(OC)cc23)CC1	inactive: -3.9%

SMILES	inhibition
COc1ccc(S(=O)(=O)NC2(C(F)(F)F)NC(=O)N(CCc3ccccc3)C2=O)cc1 (stereo not given)	active: 55.1%
CN1CCN(c2ccc(S(=O)(=O)N3CCOCC3)cc2NC(=O)CC(C)(C)C)CC1	inconclusive: 33.5%
Fc1c(F)c(-n2nnc3ccccc32)c(F)c(F)c1Cl	active: 60.4%
Nc1nnn(CC(=O)N/N=C/c2cccc(Cl)c2)n1	active: 60.5%
Cc1ccc(-n2ncc3c2CCCC3NC(=O)c2ccoc2)cc1C (stereo not given)	inactive: -4.42%
CNS(=O)(=O)c1cccc(C(=O)OCC(=O)c2ccc3c(c2)OCCO3)c1	inactive: -17.3%
Cc1ccc(S(=O)(=O)NCc2csc(-c3cccs3)n2)cc1	inactive: -5.39%
COc1ccccc1NC(=O)c1ccc(Br)o1	inactive: -0.801%
O=[N+]([O-])c1cc(-c2ccc(/C=N\n3cnnc3)o2)cc([N+](=O)[O-])c1	active: 121%
COc1cccc(NC(=O)CN(C)C(=O)C23CC4CC(CC(Cl)(C4)C2)C3)c1	inconclusive: 34.8%
COc1ccc(-n2c(-c3ccc(Cl)cc3)n[nH]c2=S)c(OC)c1	inconclusive: 32.9%
Cc1ccccc1Nc1c([N+](=O)[O-])ccc2c1=NC1(CCCCC1)N=2	inactive: -3.65%
Cc1csc(NC(=O)CSc2ncnc3c2cnn3-c2ccccc2Cl)n1	active: 73.4%
COc1ccc(/C=N/Nc2cc(C)nc3ccc(OC)cc23)c(OC)c1	active: 92.3%
O=C(CCN1C(=O)C2CCCCC2C1=O)Nc1nc2c(F)cc(F)cc2s1 (stereo not given)	inactive: -16.9%
COc1ccc(CCNC(=O)CNCCc2ccc(F)cc2)cc1	inconclusive: 49.2%
COC(=O)c1cccc(NC(=S)NCCC2=CCCCC2)c1	active: 55.1%
CCCCn1c(O)c(N=Nc2ccccc2O)c2ccccc21	active: 145%
COc1ccc(CCNc2ncnc3cc(OC)c(OC)cc23)cc1OC	inactive: -20.5%
C/C(=C\c1ccc(C(=O)O)cc1)c1ccc2c(c1)C(C)(C)CCC2(C)C	inactive: 15.5%
CN(C)S(=O)(=O)c1ccc(Cl)c(NC(=O)COC(=O)[C@@H]2CCCN2C(=O)c2cccs2)c1	inconclusive: 34.5%
